The assay concerns the target T1, Flag-tagged HKDC1 (human) (UniProt Q2TB90).
T1 sequence: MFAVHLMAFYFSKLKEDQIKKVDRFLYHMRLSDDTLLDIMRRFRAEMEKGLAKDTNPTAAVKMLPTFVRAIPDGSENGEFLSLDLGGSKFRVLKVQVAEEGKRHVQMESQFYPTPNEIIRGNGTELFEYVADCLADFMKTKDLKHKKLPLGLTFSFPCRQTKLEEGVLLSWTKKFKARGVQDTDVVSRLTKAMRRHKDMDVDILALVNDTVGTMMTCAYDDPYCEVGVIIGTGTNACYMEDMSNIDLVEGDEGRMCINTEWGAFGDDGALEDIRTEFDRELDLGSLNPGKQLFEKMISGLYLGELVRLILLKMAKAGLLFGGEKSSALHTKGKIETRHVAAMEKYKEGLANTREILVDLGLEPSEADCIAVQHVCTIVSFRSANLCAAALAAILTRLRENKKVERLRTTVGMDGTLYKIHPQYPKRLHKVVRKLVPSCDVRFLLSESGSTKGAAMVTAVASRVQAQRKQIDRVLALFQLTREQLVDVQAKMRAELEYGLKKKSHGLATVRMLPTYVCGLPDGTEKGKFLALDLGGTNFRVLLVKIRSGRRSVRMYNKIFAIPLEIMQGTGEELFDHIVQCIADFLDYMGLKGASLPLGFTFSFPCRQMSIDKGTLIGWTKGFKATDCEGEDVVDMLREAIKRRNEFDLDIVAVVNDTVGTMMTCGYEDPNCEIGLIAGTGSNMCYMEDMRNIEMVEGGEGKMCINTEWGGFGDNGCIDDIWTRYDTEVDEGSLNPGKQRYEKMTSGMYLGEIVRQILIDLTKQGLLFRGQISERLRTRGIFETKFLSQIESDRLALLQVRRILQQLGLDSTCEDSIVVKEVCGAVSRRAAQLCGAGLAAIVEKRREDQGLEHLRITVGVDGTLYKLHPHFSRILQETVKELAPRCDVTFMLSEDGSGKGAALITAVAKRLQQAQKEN
Briefly: affinity purification with mass spectrometry; IP with antibody targeting Flag-tagged HKDC1 in Hep3B cells, followed by MS identification of candidate partners.

Sequences of proteins named here, by UniProt entry; tags and fusion partners are left off.
UniProt P42224: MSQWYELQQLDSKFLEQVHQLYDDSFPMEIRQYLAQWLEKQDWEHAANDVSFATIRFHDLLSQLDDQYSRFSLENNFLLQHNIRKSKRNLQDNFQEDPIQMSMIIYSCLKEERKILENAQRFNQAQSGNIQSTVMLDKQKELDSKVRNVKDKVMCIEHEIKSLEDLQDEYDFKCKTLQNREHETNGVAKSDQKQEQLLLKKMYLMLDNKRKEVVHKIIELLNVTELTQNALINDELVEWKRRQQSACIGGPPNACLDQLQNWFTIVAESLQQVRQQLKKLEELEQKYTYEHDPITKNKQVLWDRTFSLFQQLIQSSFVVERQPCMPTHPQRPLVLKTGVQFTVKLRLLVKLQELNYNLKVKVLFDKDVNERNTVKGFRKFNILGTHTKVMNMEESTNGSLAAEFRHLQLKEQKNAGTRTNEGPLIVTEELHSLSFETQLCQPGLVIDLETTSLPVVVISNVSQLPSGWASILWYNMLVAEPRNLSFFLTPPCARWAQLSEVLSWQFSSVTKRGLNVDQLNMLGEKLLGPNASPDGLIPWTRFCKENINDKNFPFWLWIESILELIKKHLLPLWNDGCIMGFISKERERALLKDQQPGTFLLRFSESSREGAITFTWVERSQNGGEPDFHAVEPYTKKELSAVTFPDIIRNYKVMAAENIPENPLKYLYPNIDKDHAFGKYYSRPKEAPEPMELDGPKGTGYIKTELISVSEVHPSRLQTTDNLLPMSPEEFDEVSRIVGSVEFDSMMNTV

Results are given in words; binding and its absence hold for the method and conditions named. Binding seen in cells or lysates may run through a third protein. These calls come from enrichment with a bait or labelling near it, and not all partners need be listed. Where a sequence is shown, tags or fusion partners need not be part of it.

In the case of “STAT1, endogenous (from UniProt P42224 1-750)”, the binding entry is on record as “binds”.

Source of the values: PMC10864387.
